# PubChem BioAssay AID1259308, NCATS, 2017
# Assay: 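Candidate targets for better recombinant protein yield in mammalian cells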 (primary screen)
# Cells: human HEK293 embryonic kidney cells stably expressing firefly luciferase (HEK-CMV-Luc2-Hygro)
# Reagents: single siRNA against human genes, 0.8 pmol siRNA per well
# Timing: 72 h
# Detection: 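Reporter luminescence and viable-cell signal on separate replicate plates, given as percent of non-targeting control and median/MAD z-scores, plus per-cell luciferase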
# Scale: total luciferase, z-score and total luciferase, % of control: higher = more reporter protein produced; luciferase per cell, z-score: higher = more reporter output per viable cell; viable cells, % of control: higher = more viable cells
# Active means: 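An siRNA counts as active if its total luciferase robust z-score exceeds 3; genes with two or more such siRNAs out of three were retested with fresh siRNAs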
# Meaning of the calls: active = raised luciferase; inactive = no rise
# In all, the deposit lists about 59,000 reagents; shown is a part drawn at random. About 1,510 of all reagents (2.6%) were called active. 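Calls use total luciferase alone and ignore viability, so some active siRNAs may act by altering cell number.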 Reagents against one gene are numbered here. No sequences are given here.
gene,reagent no.,"total luciferase, z-score","total luciferase, % of control","luciferase per cell, z-score","viable cells, % of control",call
PANK4 (pantothenate kinase 4 (inactive)),1,-1.49,52.2,-0.88,73.5,inactive
PANK4 (pantothenate kinase 4 (inactive)),2,1.77,117,0.796,106,inactive
PANK4 (pantothenate kinase 4 (inactive)),3,1.07,103,0.926,90.4,inactive
TAC4 (tachykinin precursor 4),1,-0.585,70.2,-1.09,105,inactive
TAC4 (tachykinin precursor 4),2,1.53,112,0.175,120,inactive
TAC4 (tachykinin precursor 4),3,-0.295,76,-0.439,95.4,inactive
CHCHD2P6,1,1.85,119,1.61,86.8,inactive
CHCHD2P6,2,-1.12,59.5,-1.19,91.1,inactive
CHCHD2P6,3,2.07,123,1.98,81.7,inactive
TMEM247 (transmembrane protein 247),1,1.06,103,0.595,98.4,inactive
TMEM247 (transmembrane protein 247),2,0.118,84.2,0.188,89.6,inactive
TMEM247 (transmembrane protein 247),3,-1.37,54.6,-2.18,108,inactive
NOG (noggin),1,-0.0552,80.8,-0.308,97.9,inactive
NOG (noggin),2,-1.09,60.1,-1.31,94.9,inactive
NOG (noggin),3,1.44,111,0.589,106,inactive
OSCP1,1,-1.26,56.8,-0.504,72.5,inactive
OSCP1,2,1.13,104,1.53,78,inactive
OSCP1,3,0.256,87,0.356,88.5,inactive
RPS18P10 (ribosomal protein S18 pseudogene 10),1,-2.02,41.7,-1.07,61.7,inactive
RPS18P10 (ribosomal protein S18 pseudogene 10),2,-1.66,48.8,-1.85,88.8,inactive
RPS18P10 (ribosomal protein S18 pseudogene 10),3,-0.826,65.5,-0.626,86.3,inactive
STARD8 (StAR related lipid transfer domain containing 8),1,0.0601,83.1,0.705,77.1,inactive
STARD8 (StAR related lipid transfer domain containing 8),2,1.11,104,1.43,79.8,inactive
STARD8 (StAR related lipid transfer domain containing 8),3,0.187,85.6,-0.0283,96.4,inactive
TMPRSS12 (transmembrane serine protease 12),1,0.177,85.4,0.878,75.7,inactive
TMPRSS12 (transmembrane serine protease 12),2,0.0608,83.1,-0.523,107,inactive
TMPRSS12 (transmembrane serine protease 12),3,0.451,90.9,0.098,98.9,inactive
CFAP161 (cilia and flagella associated protein 161),1,-0.815,65.7,-0.439,82.4,inactive
CFAP161 (cilia and flagella associated protein 161),2,0.391,89.7,0.759,82,inactive
CFAP161 (cilia and flagella associated protein 161),3,1.45,111,2.01,73,inactive
CORO6 (coronin 6),1,0.157,85,-0.29,103,inactive
CORO6 (coronin 6),2,2.13,124,1.39,96.3,inactive
CORO6 (coronin 6),3,-0.165,78.6,-0.403,97.7,inactive
GIN1 (gypsy retrotransposon integrase 1),1,0.26,87.1,0.088,95.1,inactive
GIN1 (gypsy retrotransposon integrase 1),2,1.2,106,0.903,93.2,inactive
GIN1 (gypsy retrotransposon integrase 1),3,0.186,85.6,-0.221,101,inactive
RNF125 (ring finger protein 125),1,1.73,116,1.19,95,inactive
RNF125 (ring finger protein 125),2,0.284,87.5,0.406,87.9,inactive
RNF125 (ring finger protein 125),3,0.599,93.8,0.587,89.8,inactive
NTAN1 (N-terminal asparagine amidase),1,2.42,130,2.87,68.2,inactive
NTAN1 (N-terminal asparagine amidase),2,0.2,85.9,1.01,73.5,inactive
NTAN1 (N-terminal asparagine amidase),3,-0.256,76.8,-0.0924,87.9,inactive
GPRC5D (G protein-coupled receptor class C group 5 member D),1,-0.0741,80.4,0.409,80.7,inactive
GPRC5D (G protein-coupled receptor class C group 5 member D),2,0.648,94.8,0.301,97.8,inactive
GPRC5D (G protein-coupled receptor class C group 5 member D),3,0.112,84.1,-0.394,104,inactive
SCML1 (Scm polycomb group protein like 1),1,0.724,96.3,0.121,104,inactive
SCML1 (Scm polycomb group protein like 1),2,-1.4,54.1,-2.43,115,inactive
SCML1 (Scm polycomb group protein like 1),3,0.816,98.1,0.701,91.1,inactive
ZNF589 (zinc finger protein 589),1,0.265,87.2,0.463,86.2,inactive
ZNF589 (zinc finger protein 589),2,-0.325,75.4,-0.715,102,inactive
ZNF589 (zinc finger protein 589),3,-1.38,54.5,-0.915,77.4,inactive
ACAA2 (acetyl-CoA acyltransferase 2),1,-0.931,63.4,-0.96,91.2,inactive
ACAA2 (acetyl-CoA acyltransferase 2),2,-0.229,77.3,0.24,81.1,inactive
ACAA2 (acetyl-CoA acyltransferase 2),3,0.124,84.4,-0.0156,94.7,inactive
P3H1 (prolyl 3-hydroxylase 1),1,-0.225,77.4,1.07,65.3,inactive
P3H1 (prolyl 3-hydroxylase 1),2,-0.72,67.6,0.164,72.3,inactive
P3H1 (prolyl 3-hydroxylase 1),3,-2.11,39.9,-1.63,68.5,inactive

Limited to “viable cells, % of control” (3 entries from above):
TAC4 (tachykinin precursor 4) #2: 120
TAC4 (tachykinin precursor 4) #3: 95.4
CHCHD2P6 #1: 86.8
